“Also recorded” adds a separate entry of the source. At least one compound was matched to its structure with a doubt left.
How the values were obtained:
central nervous system = test: Double-blind, placebo-controlled clinical study, EEG-mapping; format: in vivo, persons
Protocol: In a double-blind, placebo-controlled clinical study on a group of 15 persons, the cerebral effect of Caroverine was tested by means of electro-encephalogram (EEG)-mapping. The 15 caucasian probands were 7 females and 8 males between 20 and 35 years old (average 27 years). The weight ranged between 53 and 84 kg (average weight: 69 kg) and the height varied between 162 to 186 cm (average height: 175 cm).
Doses of 40 mg or 80 mg of Caroverine or placebo were administered either orally or intravenously for random sampling to the persons in weekly intervals. EEG-tracings as well as recordings of pulse, blood pressure and side effects were carried out 0, 1, 2, 4, 6 and 8 hours after medication.

voltage gated channels = conditions: channels opened by electrical stimulation; cited from earlier work
[1] = test system: membrane response to acetylcholine; test: Microiontophoresis at inner hair cell synapse of guinea pig cochlea: acetylcholine-induced firing (selectivity); format: in vivo, guinea pigs; conditions: acetylcholine 60 nA; Caroverine 30 nA, FIG. 3
Protocol: (§1) Experiments were performed on adult pigmented guinea pigs (300-700 g) of both sexes, anaesthetized with a combination of Rompun (Bayer, Leverkusen, Germany) and Innovar-Vet (Pitman-Moore, Mundelin, Ill., U.S.A.). Supplementary low doses of pentobarbital (Nembutal, Abbott, Chicago, U.S.A.) were given periodically throughout the experiments. Rectal temperature was maintained within physiological limits. After tracheotomy for artificial respiration, the auditory bulla was approached ventrolaterally and the cochlea was exposed. A small opening was drilled into the cochlea bone over the pigmented stria vascularis and the ligamentum spiale of the third turn.
(§2) The occurrence of phasic activity was used to identify the location precisely, since such activity occurs in the immediate vicinity of the initial postsynaptic structures.
Recordings of extracellular action potentials were obtained using a 2M NaCl-filled barrel of the 5-barrel glass micropipette. […] Three other channels of the micropipette contained the solutions to be ejected microiontophoretically with the appropriate anionic and cationic currents: L-glutamic acid (0.5M, pH 3.5, adjusted with HCl); Caroverine-HCl (1-diethylaminoethyl-3-(p-methoxybenzyl)-1,2-dihydro-quinoxaline-2-one, 0.05M, natural pH=6.0). […]

glutamate receptors = test: Microiontophoresis at inner hair cell synapse of guinea pig cochlea: glutamate-induced spike activity; format: in vivo, guinea pigs
Protocol: The effectiveness of the 1-(aminoalkyl)-3-(benzyl)-quinoxaline-2-one derivatives as potential glutamate receptor antagonists was studied in the light of the neurotransmission between the inner hair cells (IHC) and the peripheral dendrites of the afferent neurons in the mammalian cochlea.
as §1, §2
Recordings of extracellular action potentials were obtained using a 2M NaCl-filled barrel of the 5-barrel glass micropipette. […]

CCN(CC)CCn1c(=O)c(Cc2ccc(OC)cc2)nc2ccccc21 [Caroverine]
effect on the central nervous system (EEG-data, multivariate analysis) in comparison to placebo (central nervous system; 40 mg or 80 mg, orally or intravenously): significant effect | EEG effect versus placebo after 8 hours (central nervous system; 8 hours after medication): significant differences from placebo | inhibition of the flux of Ca-ions into the cell (voltage gated channels): 50% | effect on acetylcholine-induced firing rate [1]: remains unaffected | effect on glutamate-induced spike-activity (glutamate receptors; L-glutamate 15 nA, Caroverine 30 nA for about 5 minutes, microiontophoretic, FIG. 2): blocked; also recorded: antagonizes the membrane response to glutamate in an enduring but reversible manner | effect on neural response to L-glutamate (glutamate receptors; L-glutamate 60 nA, Caroverine 30 nA, FIG. 3): selectively blocks the glutamate action; also recorded: blocked regularly and exclusively the potent glutamate receptors

— patent US5563140A, “Use of 1-(aminoalkyl)-3-(benzyl)-quinoxaline-2-one derivatives for the preparation of neuroprotective compositions” (Phafag Aktiengesellschaft, priority 1991, dated 1996)
